Taken from: PubChem BioAssay AID504784 (Drosophila RNAi Screening Center, 2011)
The screen tested about 17,000 reagents; this is a random part of those with a known target gene and a result. 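Each column is one replicate's B-score; the combined score over replicates was not deposited, so single values may mislead.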 Reagents against one gene are numbered here. Names joined by + are all predicted targets of the reagent. Reagent sequences are not shown.

- Aim: 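Fly genes whose silencing alters how much lipid cells keep in droplets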 (primary screen)
- Cell system: Drosophila Kc167 embryonic cells
- Reagents: long dsRNA against Drosophila genes, about 250 ng dsRNA per well
- Duration: 4 days
- Challenge: cells fed 400 µM oleic acid bound to BSA
- Measured: 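Cells imaged and segmented; ratio of lipid droplet area to nuclear area, log-transformed, then normalised as a B-score over the screen; higher means more stored lipid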
- Reading the numbers: droplet/nuclear area B-score: higher = more stored lipid (overstorage)

| predicted target | reagent | droplet/nuclear area B-score, replicate 1 | droplet/nuclear area B-score, replicate 2 | droplet/nuclear area B-score, replicate 3 |
| --- | --- | --- | --- | --- |
| CG11342 | 1 | 0.887 | 2.38 | – |
| CG15269 | 1 | -0.885 | -1.64 | – |
| Tsp5D (Tetraspanin 5D) | 1 | -0.503 | 0.856 | – |
| Mettl3 (Methyltransferase like 3) | 1 | -0.253 | -1.1 | – |
| Lamtor3 (Late endosomal/lysosomal adaptor, MAPK and MTOR activator 3) | 1 | 0.266 | 0.128 | – |
| NimC2 (Nimrod C2) | 1 | -0.107 | -0.148 | – |
| Cyp6a21 (Cytochrome P450 6a21) | 1 | 2.68 | 0.0436 | – |
| ND-75 (NADH dehydrogenase (ubiquinone) 75 kDa subunit) | 1 | 5.44 | 3.95 | – |
| Ncoa6 (Nuclear receptor coactivator 6) | 1 | 0.0428 | 0.938 | – |
| Ncoa6 (Nuclear receptor coactivator 6) | 2 | -2.14 | 1.67 | – |
| CG18585 | 1 | 2.23 | -0.216 | – |
| CG5961 | 1 | -0.161 | 0.615 | – |
| OXA1L (OXA1L mitochondrial inner membrane protein) | 1 | 3.72 | 2.18 | – |
| Hs6st (Heparan sulfate 6-O-sulfotransferase) | 1 | -1.26 | 0.45 | – |
| Hs6st (Heparan sulfate 6-O-sulfotransferase) | 2 | -0.853 | 2.06 | – |
| Hs6st (Heparan sulfate 6-O-sulfotransferase) | 3 | 0.693 | 0.803 | 0.152 |
| Hs6st (Heparan sulfate 6-O-sulfotransferase) | 4 | -1.05 | -0.437 | – |
| comt (comatose) | 1 | 1.43 | 1.85 | 2.29 |
| CG32453 | 1 | 0.133 | 0.392 | – |
| boss (bride of sevenless) | 1 | 0.476 | 1.17 | – |
| FANCI (Fanconi anemia complementation group I) | 1 | -0.0512 | 0.315 | – |
| CG14568 | 1 | 1.32 | -0.708 | – |
| grp + CG31782 (retired record) | 1 | -0.834 | -1.99 | – |
| GlcT (Glucosylceramide synthase) | 1 | -0.365 | 0.00793 | – |
| CG9961 | 1 | 1.32 | -1 | – |
| CG9961 | 2 | -0.0357 | 0.909 | – |
| Pdp1 (PAR-domain protein 1) | 1 | -3.15 | 0.0379 | – |
| Pdp1 (PAR-domain protein 1) | 2 | -1.39 | -0.674 | – |
| Pdp1 (PAR-domain protein 1) | 3 | 0.0565 | -0.0467 | – |
| Pdp1 (PAR-domain protein 1) | 4 | 3.72 | 2.82 | – |
| CG1090 | 1 | 1.1 | -1.42 | -1.31 |
| CG1090 | 2 | -1.67 | 1.33 | – |
| hig (hikaru genki) | 1 | -1.39 | 0.714 | 0.991 |
| hig (hikaru genki) | 2 | 1.09 | 1.01 | – |
| hig (hikaru genki) | 3 | -2.18 | 1.2 | – |
| CG33502 + CG32857 + CG32500 | 1 | -0.187 | -0.0322 | – |
| CG33502 + CG32857 + CG32500 | 2 | -0.62 | 0.978 | – |
| Mon1 (Monensin sensitivity 1) | 1 | 0.376 | -1.83 | – |
| CG32299 + CG32298 | 1 | 0.384 | 2.39 | – |
| CG32299 + CG32298 | 2 | 0.491 | -0.643 | – |
| Cep135 (Centrosomal protein 135kDa) | 1 | -0.13 | -0.604 | – |
| Cep135 (Centrosomal protein 135kDa) | 2 | 2.04 | -0.0735 | -0.519 |
| kairos | 1 | 0.169 | 0.457 | – |
| kairos | 2 | 1.8 | 0.0859 | – |
| CG17261 | 1 | -0.0473 | 0.133 | – |
| CARPA (Carbonic anhydrase-related protein A) | 1 | 0.125 | 0.288 | – |
| CARPA (Carbonic anhydrase-related protein A) | 2 | -0.0276 | -2.52 | – |
| wisp (wispy) | 1 | 0.439 | -0.0947 | 1.85 |
| wisp (wispy) | 2 | 0.000145 | 0.867 | – |
| CG1161 | 1 | 0.148 | 0.559 | – |
| Ggamma1 (G protein gamma subunit 1) | 1 | 0.9 | -1.02 | – |
| CG13955 | 1 | -0.703 | 1.67 | – |
| CG11298 | 1 | 1.34 | -0.248 | – |
| CG6277 | 1 | 0.256 | -1.44 | – |
| Timp (Tissue inhibitor of metalloproteases) | 1 | 0.227 | 0.00171 | – |
| CTCF | 1 | -0.665 | -0.638 | – |
| Nep6 (Neprilysin 6) | 1 | 0.839 | -0.195 | 0.677 |
| CG1271 | 1 | 0.568 | 0.369 | – |
| vito (viriato) | 1 | 2.13 | -0.663 | – |
| Rnf11 (Ring finger protein 11) | 1 | -0.208 | -1.29 | – |
| ND-MWFE (NADH dehydrogenase (ubiquinone) MWFE subunit) | 1 | 1.11 | -0.503 | – |
| CG32588 | 1 | -0.0717 | -0.0372 | – |
| Unc-115b + p24-2 + Unc-115a | 1 | 1.49 | 3.54 | – |
| CG12817 | 1 | -0.0372 | 0.141 | – |
| Mgtor (Megator) | 1 | 0.314 | 0.169 | – |
| CG1504 | 1 | 1.18 | -0.424 | – |
| heph (hephaestus) | 1 | -0.235 | -0.165 | – |
| heph (hephaestus) | 2 | 0.85 | 0.0599 | – |
| heph (hephaestus) | 3 | 1.53 | 0.901 | – |
| heph (hephaestus) | 4 | -0.216 | 0.539 | – |
| spz3 (spatzle 3) | 1 | -1.94 | -0.545 | – |
| spz3 (spatzle 3) | 2 | -0.559 | 0.0404 | – |
| Tctp (Translationally controlled tumor protein) | 1 | -0.774 | 0.0697 | – |
| Adck5 (aarF domain containing kinase 5) | 1 | 0.225 | 1.88 | – |
| B-H1 (BarH1) | 1 | 1.95 | -2.11 | -0.52 |
| B-H1 (BarH1) | 2 | 3.75 | 0.175 | – |
| bip1 | 1 | 0.893 | -0.27 | – |
| Zwilch | 1 | 0.201 | 3.03 | – |
| Ufd4 (Ubiquitin fusion-degradation 4-like) | 1 | -0.368 | -0.186 | – |
| Dpit47 (DNA polymerase interacting tpr containing protein of 47kD) | 1 | 0.314 | 4.48 | – |
| TotC (Turandot C) | 1 | -0.818 | 0.168 | – |
| dx (deltex) | 1 | -0.599 | 0.477 | – |
| sbr (small bristles) | 1 | -0.284 | -2.67 | -0.367 |
| sbr (small bristles) | 2 | 1.19 | 1.78 | -0.0182 |

Only “droplet/nuclear area B-score, replicate 1” (13 entries from above):
CG32299 + CG32298 #2	0.491
Cep135 (Centrosomal protein 135kDa) #1	-0.13
Cep135 (Centrosomal protein 135kDa) #2	2.04
kairos #1	0.169
kairos #2	1.8
CG17261	-0.0473
CARPA (Carbonic anhydrase-related protein A) #1	0.125
CARPA (Carbonic anhydrase-related protein A) #2	-0.0276
wisp (wispy) #1	0.439
wisp (wispy) #2	0.000145
CG1161	0.148
Ggamma1 (G protein gamma subunit 1)	0.9
CG13955	-0.703
